# The whole screen tested about 390,000 compounds, of which about 910 (0.23%) were called active. This list was built around the results that the source calls inconclusive (neither active nor inactive); the mix of calls is not that of the screen. Calls come from the whole dose curve; as a rule, active = well fitted inhibition curve with a large enough effect; inconclusive = small, poorly fitted or top-dose-only effect; inactive = no such curve, though single readings can be large or run the other way. A potency beside an inconclusive call is a rough fit, not a confirmed value.
# Sequences of proteins named here, by UniProt entry; tags and fusion partners are left off. A change or cut given only in a name is not applied to a line headed by its entry.
# UniProt O94782: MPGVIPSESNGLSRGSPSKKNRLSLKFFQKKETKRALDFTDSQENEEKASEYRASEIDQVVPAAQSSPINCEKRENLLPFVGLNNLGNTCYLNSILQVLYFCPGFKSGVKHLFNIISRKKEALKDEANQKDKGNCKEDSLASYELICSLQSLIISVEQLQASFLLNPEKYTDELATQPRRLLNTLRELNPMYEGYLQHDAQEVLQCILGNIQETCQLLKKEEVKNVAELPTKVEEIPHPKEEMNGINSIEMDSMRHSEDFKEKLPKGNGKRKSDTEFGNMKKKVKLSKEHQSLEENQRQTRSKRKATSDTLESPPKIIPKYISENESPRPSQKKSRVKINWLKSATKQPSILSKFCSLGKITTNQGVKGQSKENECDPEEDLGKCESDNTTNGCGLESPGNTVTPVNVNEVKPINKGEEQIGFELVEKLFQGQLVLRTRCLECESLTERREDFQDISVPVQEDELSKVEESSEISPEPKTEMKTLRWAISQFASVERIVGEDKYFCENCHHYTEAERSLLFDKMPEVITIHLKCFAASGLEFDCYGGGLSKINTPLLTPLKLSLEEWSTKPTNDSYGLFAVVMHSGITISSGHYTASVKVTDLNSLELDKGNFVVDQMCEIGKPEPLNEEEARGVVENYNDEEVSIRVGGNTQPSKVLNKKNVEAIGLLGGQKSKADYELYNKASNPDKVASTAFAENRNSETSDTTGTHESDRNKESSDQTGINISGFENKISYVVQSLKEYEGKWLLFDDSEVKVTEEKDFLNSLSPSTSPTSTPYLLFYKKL
# Molecular target: Ubiquitin carboxyl-terminal hydrolase 1 (Homo sapiens) (UniProt O94782)
# Assay: Inhibitors of USP1/UAF1: Primary Screen; note: nearly all actives have a fitted effect of over 60% in size
# Settings: recombinant USP1/UAF1, Ub-Rhodamine cleavage fluorescence; activity change, negative = inhibition: at 57.1 µM (top of the series)
# Outline: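 1 nM enzyme complex + cpd, 15 min RT; start with Ub-Rho 150nM final; kinetic fluorescence ex 480/em 540, 6 reads q60 s. Buffer 50mM HEPES pH 7.8, 0.5mM EDTA, 0.1 mg/ml BSA, 1mM TCEP, 0.01% Tween-20.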
# % is set by controls: 0 for no effect and ±100 for the full control effect; potency is the fitted concentration of half-maximal effect.
Structure (SMILES),Potency,"activity change, negative = inhibition"
COC(=O)C1=C(c2cccc(OCc3ccccc3)c2)C[C@@H]2CC[C@H]1N2C(=O)NCc1ccc(N(C)C)cc1,"inconclusive: 35.5 µM [inhibitor, single point]",
CCCCCn1c(NC(=O)c2ccco2)c(C(=O)OCC)c2nc3ccccc3nc21,active: 7.08 µM,
Cc1cc(C)cc(NC(=O)c2cnc3sc(N4CCCC4)nn3c2=O)c1,"inconclusive: 1.12 µM [inhibitor, full curve, poor fit]",
O=C1NC(=O)C2C1C1(Cl)C(Cl)=C(Cl)C2(Cl)C1(Cl)Cl (stereo unspecified),"inconclusive: 1.12 µM [inhibitor, partial curve]",
Cc1ccccc1-n1c(O)c(/C=N/NC(=O)c2ccccc2O)c(=O)[nH]c1=S,"inconclusive: 31.6 µM [inhibitor, partial curve]",
CCOC(=O)c1c(C)n(Cc2ccccc2)c2ccc(OCC(O)CNC(C)(C)C)cc12 (stereo unspecified),"inconclusive: 0.794 µM [inhibitor, full curve]",
Cc1cc(C)cc(OCCOc2cccc(C=C3C(=O)NC(=O)NC3=O)c2)c1,"inconclusive: 39.8 µM [inhibitor, partial curve]",
CCn1c(O)c(/C=N/NC(=O)c2ccncc2)c(=O)n(CC)c1=S,"inconclusive: 35.5 µM [inhibitor, partial curve, poor fit]",
O=C(NCC1=C(c2cccc3ccccc23)C[C@@H]2CC[C@H]1N2Cc1ccco1)c1ccc([N+](=O)[O-])cc1,,inactive: -21.7%
CN(C)c1ccc(N=Cc2c(O)n(CCC3=CCCCC3)c(=O)[nH]c2=O)cc1,,inactive: -0.0714%
COc1cccc(CCNCc2cccc(C(F)(F)F)c2)c1,"inconclusive: 0.562 µM [inhibitor, full curve, poor fit]",
CCC(C)NC(=O)c1c(N)n(CCCOC)c2nc3ccccc3nc12 (stereo unspecified),active: 31.6 µM,
CCOc1ccc(C(NC(=O)c2cc(OC)c(OC)c(OC)c2)c2cc(Cl)c3cccnc3c2O)cc1 (stereo unspecified),"inconclusive: 0.631 µM [inhibitor, full curve, poor fit]",
Cc1ccc(NC(=O)COc2ccc(-c3nn(C)c(=O)c4ccccc34)cc2)c(C)c1,"inconclusive: 0.631 µM [inhibitor, full curve]",
C=CCn1cc(C=C2C(=O)NC(=O)NC2=O)c2ccccc21,,inactive: 176%
CCN(CC)c1ccc(/C=C2\C(=O)NC(=S)N(C)C2=O)o1,"inconclusive: 35.5 µM [inhibitor, partial curve]",
CCCC(=O)N(C)C1=Nc2ccc(Cl)cc2C(c2ccccc2)=[N+]([O-])C1,"inconclusive: 39.8 µM [inhibitor, partial curve, poor fit]",
Oc1ccc(/C=N/NP(=S)(c2ccccc2)c2ccccc2)cc1,,inactive: -13.2%
Cc1ccc(C(c2nnnn2Cc2ccccc2)N2CC=C(c3ccc(F)cc3)CC2)cc1 (stereo unspecified),"inconclusive: 0.631 µM [inhibitor, full curve, poor fit]",
CCC1=CCN(CCc2c(C)[nH]c3ccccc23)CC1,"inconclusive: 31.6 µM [inhibitor, partial curve]",
CNc1ccc2nc3ccccc3[n+](C)c2c1,"inconclusive: 20 µM [inhibitor, partial curve]",

Structure (SMILES),Potency,"activity change, negative = inhibition"
COC(=O)C1=C(c2cccc(C#N)c2)C[C@@H]2CC[C@H]1N2C(=O)NCc1ccc(F)cc1,"inconclusive: 10 µM [inhibitor, partial curve, poor fit]",
CC(C)[C@H]1C(=O)N2CCC[C@H]2[C@]2(O)O[C@](NC(=O)[C@@H]3C=C4c5cccc6[nH]cc(c56)C[C@H]4N(C)C3)(C(C)C)C(=O)N12,active: 22.4 µM,
C[C@]12CC[C@@H]3c4ccc(O)cc4C(=O)C[C@H]3[C@@H]1CC[C@@H]2O,"inconclusive: 56.2 µM [inhibitor, partial curve, poor fit]",
O=C1NC(=O)C(=Cc2ccc(-c3ccc(S(=O)(=O)N4CCOCC4)cc3)o2)C(=O)N1,"inconclusive: 2.82 µM [inhibitor, full curve, poor fit]",
COc1ccc(C2SCC(=O)Nc3c2c(=O)[nH]n3C2CCCCCC2)cc1OC (stereo unspecified),"inconclusive: 31.6 µM [inhibitor, single point]",
CC(C)C[C@H]1C(=O)N2CCCC2[C@]2(O)O[C@](NC(=O)[C@@H]3C=C4c5cccc6[nH]cc(c56)CC4N(C)C3)(C(C)C)C(=O)N12 (stereo partly specified),active: 12.6 µM,
COc1ccc(N2C(=O)/C(=C/C=C/c3ccccc3[N+](=O)[O-])C(=O)NC2=S)cc1,"inconclusive: 39.8 µM [inhibitor, partial curve]",
CN(C)[C@@H]1C(=O)C(C(N)=O)=C(O)[C@@]2(O)C(=O)C3=C(O)c4c(O)cccc4[C@@](C)(O)C3C[C@@H]12 (stereo partly specified),,inactive: -14.1%
CC(C)(C)NC(=O)NC(=O)CN1CC=C(c2ccccc2)CC1,"inconclusive: 44.7 µM [inhibitor, partial curve, poor fit]",
O=c1[nH]sc2cc(F)ccc12,,inactive: 1.58%
O=C(Nc1ccc(Cl)cc1)OC1CN2CCC1CC2 (stereo unspecified),,inactive: -21%
COc1ccc(CC2C(=O)NC(C)C(=O)N(C)C3C(=O)N(C)C(Cc4ccc(O)c(c4)Oc4ccc(cc4)C3O)C(=O)NC(C)C(=O)NC(C)C(=O)N2C)cc1 (stereo unspecified),,inactive: -19%
CCOC(=O)c1ccc(N2C(=O)c3n[nH]c(-c4cccs4)c3C2c2ccc(C(C)(C)C)cc2)cc1 (stereo unspecified),"inconclusive: 25.1 µM [inhibitor, partial curve]",
C[C@H]1C=CC(=O)O[C@H]1c1ccccc1,"inconclusive: 5.62 µM [inhibitor, partial curve, poor fit]",
COC(=O)C1=C(c2ccc(F)cc2OCc2ccccc2)C[C@@H]2CC[C@H]1N2C(=O)N1CCCCC1,,inactive: -0.788%
N[C@@H](Cc1cc(I)c(O)c(I)c1)C(=O)O,"inconclusive: 44.7 µM [inhibitor, partial curve, poor fit]",
O=[N+]([O-])c1ccc(N2CCCCCC2)c2ncccc12,"inconclusive: 50.1 µM [inhibitor, partial curve, poor fit]",
COC(=O)C1=C(c2cccc(OC)c2OC)C[C@@H]2CC[C@H]1N2C(=O)NCc1ccco1,"inconclusive: 8.91 µM [inhibitor, partial curve]",
CN(C)c1ccc(C2CC(c3c(O)n(C4CCCCC4)c(=O)[nH]c3=O)=Nc3ccccc3S2)cc1 (stereo unspecified),"inconclusive: 10 µM [inhibitor, partial curve, poor fit]",
Cc1cc(N(CCCl)CCCl)ccc1/C=N/NC(=O)c1ccco1,,inactive: -11.4%
Cn1cccc1/C=C1\C(=O)NC(=O)N(Cc2ccccc2)C1=O,,inactive: -13.3%

Structure (SMILES),Potency,"activity change, negative = inhibition"
CN1C(=O)NC(=O)/C(=C\c2ccc([N+](=O)[O-])o2)C1=O,"inconclusive: 35.5 µM [inhibitor, partial curve, poor fit]",
CC(=O)[C@H]1CCC2C3CC[C@H]4C[C@@H](O)CC[C@]4(C)C3CC[C@@]21C (stereo partly specified),"inconclusive: 3.16 µM [inhibitor, full curve, poor fit]",
Cc1oc(-c2cccc(Cl)c2)nc1CN1CCC(C(=O)NCCCN2CCN(c3cccc(Cl)c3)CC2)CC1,"inconclusive: 0.0447 µM [inhibitor, full curve, poor fit]",
COc1ccccc1-n1c(-c2ccccc2Cl)nc2ccccc2c1=O,,inactive: -9.36%
CCOP(=O)(/C=C(\Cl)c1ccccc1)C(O)c1ccc(F)cc1 (stereo unspecified),,inactive: -16.4%
O=C1CC(c2ccccc2Br)c2c(c3ccccc3oc2=O)O1 (stereo unspecified),"inconclusive: 14.1 µM [inhibitor, partial curve]",
Cc1ccc(-c2nn(Cc3ccccc3)cc2C=O)cc1C,,inactive: -20.6%
Cc1ccc(/C=C2\C(=O)NC(=O)N(Cc3ccccc3Cl)C2=O)o1,,inactive: -4.02%
COC(=O)C1=C(c2cccc(C#N)c2)C[C@@H]2CC[C@H]1N2C(=O)N1CCc2cc(OC)c(OC)cc2C1,"inconclusive: 50.1 µM [inhibitor, partial curve, poor fit]",
CN1/C(=C\C=C2C(=O)NC(=O)NC2=O)C(C)(C)c2ccccc21,"inconclusive: 28.2 µM [inhibitor, partial curve]",
Cc1ccccc1CN1CCN(c2ccc(Cl)cc2)CC1,"inconclusive: 11.2 µM [inhibitor, single point]",
O=C1/C(=C/c2cccc([N+](=O)[O-])c2)N2CCC1CC2,,inactive: -11.4%
CCOc1ccc(-n2c(O)c(N=Nc3c(C)n(C)n(-c4ccccc4)c3=O)c(=O)[nH]c2=O)cc1,"inconclusive: 7.94 µM [inhibitor, single point]",
O=C(COc1ccc2c3c(c(=O)oc2c1)CCC3)N1C[C@H]2C[C@@H](C1)c1cccc(=O)n1C2,"inconclusive: 10 µM [inhibitor, partial curve, poor fit]",
Cc1[nH]n(-c2ccccc2)c(=O)c1C(C[N+](=O)[O-])c1ccccc1Cl (stereo unspecified),"inconclusive: 31.6 µM [inhibitor, partial curve]",
COc1cc2c(cc1OC)-c1c3c(cc4c1[C@@H](C2)N(C)CC4)OCO3,"inconclusive: 22.4 µM [inhibitor, single point]",
CCOC(=O)c1sc(=NC(=O)c2ccc(C)c(C)c2)n(C)c1C,"inconclusive: 31.6 µM [inhibitor, partial curve]",
O=C1C=C(NS(=O)(=O)c2ccccc2)C(=O)c2ccccc21,"inconclusive: 35.5 µM [inhibitor, partial curve, poor fit]",
C[C@]1(O)CCC2C3CC[C@H]4C[C@@H](OC(=O)CNC(=O)CN)CC[C@]4(C)C3CC[C@@]21C (stereo partly specified),"inconclusive: 5.62 µM [inhibitor, partial curve]",

# Gathered by group, the entries above containing a tert-butyl group.
Structure (SMILES),Potency,"activity change, negative = inhibition"
CCOC(=O)c1c(C)n(Cc2ccccc2)c2ccc(OCC(O)CNC(C)(C)C)cc12 (stereo unspecified),"inconclusive: 0.794 µM [inhibitor, full curve]",
CC(C)(C)NC(=O)NC(=O)CN1CC=C(c2ccccc2)CC1,"inconclusive: 44.7 µM [inhibitor, partial curve, poor fit]",
CCOC(=O)c1ccc(N2C(=O)c3n[nH]c(-c4cccs4)c3C2c2ccc(C(C)(C)C)cc2)cc1 (stereo unspecified),"inconclusive: 25.1 µM [inhibitor, partial curve]",

# — PubChem BioAssay AID743255 (National Center for Advancing Translational Sciences (NCATS), 2014)
